Reference: PubChem BioAssay AID1259254 (NCATS, 2017)

- Test: 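Finding genes that stop cells copying their DNA twice in one cycle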 (primary screen)
- Cell system: human HCT116 colorectal cancer cells
- Reagents: single siRNA against human genes
- Time to read-out: 3 days
- Measurement: 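Nuclei stained with Hoechst and imaged; cell-cycle phase assigned by DNA content; G2 share scaled per plate, non-targeting siRNA 0%, GMNN siRNA 100%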
- Scale: G2 robust z-score and G2 cells, % of GMNN control: higher = more G2 cells, more excess DNA replication; raw share of cells in G2: higher = larger share of cells with G2 DNA content
- Hit rule: 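Active siRNAs have a G2 robust z of 5 or more median absolute deviations over the median, which in these data means about 38% or higher of GMNN control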
This is a random part of about 59,000 reagents. About 1,550 of them (2.6%) count as active. 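G2 share is only a proxy for re-replication; each gene was hit by three separate siRNAs, and active genes were retested.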 Raw values vary from plate to plate and are shown uncorrected. A number with no mark means an inactive call. No sequences are given here. Not given: the amount of reagent.

no.	gene symbol	PubChem SID	G2 robust z-score	G2 cells, % of GMNN control	raw share of cells in G2 (%)
1	ARHGAP17	SID160742977	-1.13	-5	4.24
2	ARHGAP17	SID160742978	0.925	9.47	7.83
3	ARHGAP17	SID160742979	1.96	16.8	11.3
4	ARMC6	SID160754493	-0.485	-0.445	3.91
5	ARMC6	SID160754494	-0.111	2.19	3.98
6	ARMC6	SID160754495	0.203	4.4	3.1
7	CCK	SID160737523	-0.642	-1.55	4.58
8	CCK	SID160737534	-0.823	-2.82	3.05
9	CCK	SID160737545	-0.054	2.59	4.54
10	UCP2	SID160718579	0.372	5.58	6.34
11	UCP2	SID160718581	-1.67	-8.78	1.58
12	UCP2	SID160718582	-0.43	-0.0578	5.57
13	IGFBP7	SID160775644	0.191	4.31	6.61
14	IGFBP7	SID160775646	-0.272	1.05	4.59
15	IGFBP7	SID160775647	-0.0277	2.77	6.74
16	TMEM26	SID160732686	-0.406	0.114	3.23
17	TMEM26	SID160761317	1.29	12	7.93
18	TMEM26	SID160761318	-0.0518	2.6	4.02
19	VDAC2	SID160718732	-0.225	1.38	5.79
20	VDAC2	SID160718733	-0.786	-2.56	3.92
21	VDAC2	SID160718734	0.825	8.77	7.8
22	CIMIP6	SID160732461	0.79	8.52	5.67
23	CIMIP6	SID160756902	3.19	25.4	13.8
24	CIMIP6	SID160756903	1.95	16.7	8.4
25	GPATCH2	SID160742947	-0.669	-1.74	3.61
26	GPATCH2	SID160742948	1.28	12	8.74
27	GPATCH2	SID160742949	-0.478	-0.395	6.26
28	RBBP5	SID160715712	-0.158	1.85	4.2
29	RBBP5	SID160715713	-0.323	0.698	3.36
30	RBBP5	SID160731647	3.49	27.5	17.7
31	ZIC2	SID160718972	0.651	7.55	6.04
32	ZIC2	SID160718973	-1.18	-5.32	3.62
33	ZIC2	SID160718977	-0.174	1.74	4.07
34	RASD2	SID160736541	0.495	6.45	6.07
35	RASD2	SID160736542	-0.359	0.443	6.55
36	RASD2	SID160736543	-0.813	-2.75	3.23
37	DDX10	SID160730688	-0.891	-3.3	2.96
38	DDX10	SID160753527	1.61	14.3	10.1
39	DDX10	SID160753538	-0.75	-2.31	4.15
40	BEST1	SID160718777	-0.319	0.721	5.55
41	BEST1	SID160718778	-0.871	-3.16	3.71
42	BEST1	SID160718779	0.893	9.25	7.99
43	RPE65	SID160716019	-0.69	-1.89	3.96
44	RPE65	SID160716021	4.09	31.7	14.7
45	RPE65	SID160716022	0.339	5.35	6.82
46	TXLNG	SID160744358	-0.343	0.552	4.74
47	TXLNG	SID160744360	0.611	7.26	7.15
48	TXLNG	SID160744361	0.245	4.69	4.63
49	ATXN7	SID160716367	-0.174	1.74	5.71
50	ATXN7	SID160716368	-0.723	-2.12	3.38
51	ATXN7	SID160716369	-0.784	-2.55	2.43
52	GNB3	SID160723785	-1.15	-5.1	1.84
53	GNB3	SID160723787	0.731	8.11	8.35
54	GNB3	SID160730987	-0.901	-3.37	4.01
55	BMS1P12	SID160725756	1.73	15.1	7.55
56	BMS1P12	SID160769298	2.68	21.8	11.9
57	BMS1P12	SID160769299	-0.00997	2.9	4.31
58	RPS6KL1	SID160751315	-0.703	-1.98	4.97
59	RPS6KL1	SID160751317	1.62	14.4	10.4
60	RPS6KL1	SID160751318	-0.946	-3.69	2.5
61	HES3	SID160725289	-0.432	-0.0702	4.26
62	HES3	SID160725290	2.1	17.8	11.9
63	HES3	SID160731188	-0.431	-0.0617	5.88
64	ARLN	SID160767174	-1.13	-4.99	1.99
65	ARLN	SID160767175	2.17	18.2	10.7
66	ARLN	SID160767176	-0.819	-2.79	3.63
67	EXOC6B	SID160735785	-0.0649	2.51	5.97
68	EXOC6B	SID160735787	1.21	11.5	8.89
69	EXOC6B	SID160735788	1.49	13.4	8.2

3 neighbouring reagents already listed:
no.	gene symbol	PubChem SID	G2 robust z-score	G2 cells, % of GMNN control	raw share of cells in G2 (%)
17	TMEM26	SID160761317	1.29	12	7.93
18	TMEM26	SID160761318	-0.0518	2.6	4.02
19	VDAC2	SID160718732	-0.225	1.38	5.79
